# Measurements taken from the supplement of paper PMC8728848.
# The other results are listed elsewhere or left out.
# B1: Erv46-EDTA (Saccharomyces cerevisiae), P39727 (protein)
# chain: MKFLVNVALVFMVVYISYIYAAAPEHHHHHHDYDIPTTENLYFQGAMDSVVTRPQLVVDRDRHAKLELNMDVTFPSMPCDLVNLDIMDDSGEMQLDILDAGFTMSRLNSEGRPVGDATELHVGGNGDGTAPVNNDPNYCGPCYGAKDQSQNENLAQEEKVCCQDCDAVRSAYLEAGWAFFDGKNIEQCEREGYVSKINEHLNEGCRIKGSAQINRIQGNLHFAPGKPYQNAYGHFHDTSLYDKTSNLNFNHIINHLSFGKPIQSHSKLLGNDKRHGGAVVATSPLDGRQVFPDRNTHFHQFSYFAKIVPTRYEYLDNVVIETAQFSATFHSRPLAGGRDKDHPNTLHVRGGIPGMFVFFEMSPLKVINKEQ
# How the values were obtained:
# Experiment in all cases: glycan array binding signal (z-score within array); higher = stronger binding
# Conditions in all cases: glycan notation: IUPAC condensed, linker removed
# [1] = biological target: Gal(b1-3)[Fuc(a1-4)]GlcNAc(b1-3)Gal(b1-4)[Fuc(a1-3)]GlcNAc
# Procedure, shortened: (§1)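 The binding signal is a Z-score computed within each array. Data were drawn from 3228 arrays in the Consortium for Functional Glycomics database, restricted to those with a known protein sequence. Scores were averaged over arrays of the same protein sequence at different concentrations or buffers, and over linkers, and negative values can be taken as non-binding.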
# [2] = biological target: Gal(b1-3)[Fuc(a1-4)]GlcNAc(b1-6)GalNAc
# Procedure, shortened: as §1
# [3] = biological target: Gal(b1-3)[GlcNAc(b1-6)]GalNAc
# Procedure, shortened: as §1
# [4] = biological target: Gal(b1-3)[Neu5Ac(a2-6)]GalNAc
# Procedure, shortened: as §1
# [5] = biological target: Gal(b1-3)[Neu5Ac(a2-6)]GlcNAc(b1-4)Gal(b1-4)Glc
# Procedure, shortened: as §1
# [6] = biological target: Gal(b1-3)[Neu5Ac(b2-6)]GalNAc
# Procedure, shortened: as §1
# [7] = biological target: Gal(b1-4)Gal
# Procedure, shortened: as §1
# [8] = biological target: Gal(b1-4)GalNAc(a1-3)[Fuc(a1-2)]Gal(b1-4)GlcNAc
# Procedure, shortened: as §1
# [9] = biological target: Gal(b1-4)GalNAc(b1-3)[Fuc(a1-2)]Gal(b1-4)GlcNAc
# Procedure, shortened: as §1
# [10] = biological target: Gal(b1-4)Glc
# Procedure, shortened: as §1
# [11] = biological target: Gal(b1-4)Glc6S
# Procedure, shortened: as §1
# [12] = biological target: Gal(b1-4)GlcNAc
# Procedure, shortened: as §1
# [13] = biological target: Gal(b1-4)GlcNAc(a1-6)Gal(b1-4)GlcNAc
# Procedure, shortened: as §1
# [14] = biological target: Gal(b1-4)GlcNAc(b1-2)Man
# Procedure, shortened: as §1
# [15] = biological target: Gal(b1-4)GlcNAc(b1-2)Man(a1-3)Man(b1-4)GlcNAc(b1-4)GlcNAc
# Procedure, shortened: as §1
# [16] = biological target: Gal(b1-4)GlcNAc(b1-2)Man(a1-3)[Gal(b1-4)GlcNAc(b1-2)Man(a1-6)]Man(b1-4)GlcNAc(b1-4)GlcNAc
# Procedure, shortened: as §1
# [17] = biological target: Gal(b1-4)GlcNAc(b1-2)Man(a1-3)[Gal(b1-4)GlcNAc(b1-2)Man(a1-6)]Man(b1-4)GlcNAc(b1-4)[Fuc(a1-6)]GlcNAc
# Procedure, shortened: as §1
# [18] = biological target: Gal(b1-4)GlcNAc(b1-2)Man(a1-3)[Gal(b1-4)GlcNAc(b1-2)Man(a1-6)][Gal(b1-4)GlcNAc(b1-4)]Man(b1-4)GlcNAc(b1-4)[Fuc(a1-6)]GlcNAc
# Procedure, shortened: as §1
# [19] = biological target: Gal(b1-4)GlcNAc(b1-2)Man(a1-3)[Gal(b1-4)GlcNAc(b1-2)Man(a1-6)][GlcNAc(b1-4)]Man(b1-4)GlcNAc(b1-4)[Fuc(a1-6)]GlcNAc
# Procedure, shortened: as §1
# [20] = biological target: Gal(b1-4)GlcNAc(b1-2)Man(a1-3)[GlcNAc(b1-2)Man(a1-6)]Man(b1-4)GlcNAc(b1-4)GlcNAc
# Procedure, shortened: as §1
# [21] = biological target: Gal(b1-4)GlcNAc(b1-2)Man(a1-3)[GlcNAc(b1-4)][Gal(b1-4)GlcNAc(b1-2)Man(a1-6)]Man(b1-4)GlcNAc(b1-4)GlcNAc
# Procedure, shortened: as §1
# [22] = biological target: Gal(b1-4)GlcNAc(b1-2)Man(a1-3)[Man(a1-6)]Man(b1-4)GlcNAc(b1-4)GlcNAc
# Procedure, shortened: as §1
# [23] = biological target: Gal(b1-4)GlcNAc(b1-2)Man(a1-6)Man(b1-4)GlcNAc(b1-4)GlcNAc
# Procedure, shortened: as §1
# [24] = biological target: Gal(b1-4)GlcNAc(b1-2)Man(a1-6)[GlcNAc(b1-2)Man(a1-3)]Man(b1-4)GlcNAc(b1-4)GlcNAc
# Procedure, shortened: as §1
# [25] = biological target: Gal(b1-4)GlcNAc(b1-2)Man(a1-6)[Man(a1-3)]Man(b1-4)GlcNAc(b1-4)GlcNAc
# Procedure, shortened: as §1
# [26] = biological target: Gal(b1-4)GlcNAc(b1-2)[Gal(b1-4)GlcNAc(b1-4)]Man(a1-3)[Gal(b1-4)GlcNAc(b1-2)Man(a1-6)]Man(b1-4)GlcNAc(b1-4)GlcNAc
# Procedure, shortened: as §1
# [27] = biological target: Gal(b1-4)GlcNAc(b1-2)[Gal(b1-4)GlcNAc(b1-4)]Man(a1-3)[Gal(b1-4)GlcNAc(b1-2)[Gal(b1-4)GlcNAc(b1-6)]Man(a1-6)]Man(b1-4)GlcNAc(b1-4)GlcNAc
# Procedure, shortened: as §1
# [28] = biological target: Gal(b1-4)GlcNAc(b1-2)[Gal(b1-4)GlcNAc(b1-4)]Man(a1-3)[GlcNAc(b1-4)][Gal(b1-4)GlcNAc(b1-2)Man(a1-6)]Man(b1-4)GlcNAc(b1-4)GlcNAc
# Procedure, shortened: as §1
# [29] = biological target: Gal(b1-4)GlcNAc(b1-2)[Gal(b1-4)GlcNAc(b1-4)]Man(a1-3)[GlcNAc(b1-4)][Gal(b1-4)GlcNAc(b1-2)[Gal(b1-4)GlcNAc(b1-6)]Man(a1-6)]Man(b1-4)GlcNAc(b1-4)GlcNAc
# Procedure, shortened: as §1
# [30] = biological target: Gal(b1-4)GlcNAc(b1-2)[Gal(b1-4)GlcNAc(b1-6)]Man(a1-6)[Gal(b1-4)GlcNAc(b1-2)Man(a1-3)]Man(b1-4)GlcNAc(b1-4)GlcNAc
# Procedure, shortened: as §1
# [31] = biological target: Gal(b1-4)GlcNAc(b1-2)[Gal(b1-4)GlcNAc(b1-6)]Man(a1-6)[Gal(b1-4)GlcNAc(b1-2)Man(a1-3)]Man(b1-4)GlcNAc(b1-4)[Fuc(a1-6)]GlcNAc
# Procedure, shortened: as §1
# [32] = biological target: Gal(b1-4)GlcNAc(b1-2)[Gal(b1-4)GlcNAc(b1-6)]Man(a1-6)[GlcNAc(b1-4)][Gal(b1-4)GlcNAc(b1-2)Man(a1-3)]Man(b1-4)GlcNAc(b1-4)GlcNAc
# Procedure, shortened: as §1
# [33] = biological target: Gal(b1-4)GlcNAc(b1-2)[Gal(b1-4)GlcNAc(b1-6)]Man(a1-6)[GlcNAc(b1-4)][Gal(b1-4)GlcNAc(b1-2)[Gal(b1-4)GlcNAc(b1-4)]Man(a1-3)]Man(b1-4)GlcNAc(b1-4)[Fuc(a1-6)]GlcNAc
# Procedure, shortened: as §1
# [34] = biological target: Gal(b1-4)GlcNAc(b1-3)Gal(b1-3)GalNAc
# Procedure, shortened: as §1
# [35] = biological target: Gal(b1-4)GlcNAc(b1-3)Gal(b1-3)GlcNAc
# Procedure, shortened: as §1
# [36] = biological target: Gal(b1-4)GlcNAc(b1-3)Gal(b1-4)Glc
# Procedure, shortened: as §1
# [37] = biological target: Gal(b1-4)GlcNAc(b1-3)Gal(b1-4)GlcNAc
# Procedure, shortened: as §1
# [38] = biological target: Gal(b1-4)GlcNAc(b1-3)Gal(b1-4)GlcNAc(b1-2)Man(a1-3)[Gal(b1-4)GlcNAc(b1-3)Gal(b1-4)GlcNAc(b1-2)Man(a1-6)]Man(b1-4)GlcNAc(b1-4)GlcNAc
# Procedure, shortened: as §1
binder,measurement,setting,value
B1,glycan array binding signal (z-score),[1],0.411
same,glycan array binding signal (z-score),[2],0.704
same,glycan array binding signal (z-score),[3],-0.116
same,glycan array binding signal (z-score),[4],-0.118
same,glycan array binding signal (z-score),[5],-0.483
same,glycan array binding signal (z-score),[6],0.175
same,glycan array binding signal (z-score),[7],-0.373
same,glycan array binding signal (z-score),[8],-0.112
same,glycan array binding signal (z-score),[9],0.1
same,glycan array binding signal (z-score),[10],0.02
same,glycan array binding signal (z-score),[11],-0.225
same,glycan array binding signal (z-score),[12],-0.332
same,glycan array binding signal (z-score),[13],-0.275
same,glycan array binding signal (z-score),[14],0.412
same,glycan array binding signal (z-score),[15],-0.633
same,glycan array binding signal (z-score),[16],-0.253
same,glycan array binding signal (z-score),[17],-0.444
same,glycan array binding signal (z-score),[18],-0.498
same,glycan array binding signal (z-score),[19],-0.491
same,glycan array binding signal (z-score),[20],0.376
same,glycan array binding signal (z-score),[21],-1.06
same,glycan array binding signal (z-score),[22],-0.25
same,glycan array binding signal (z-score),[23],-0.354
same,glycan array binding signal (z-score),[24],-0.581
same,glycan array binding signal (z-score),[25],-0.001
same,glycan array binding signal (z-score),[26],-0.584
same,glycan array binding signal (z-score),[27],-1.16
same,glycan array binding signal (z-score),[28],-0.206
same,glycan array binding signal (z-score),[29],0.184
same,glycan array binding signal (z-score),[30],-0.306
same,glycan array binding signal (z-score),[31],0.123
same,glycan array binding signal (z-score),[32],0.319
same,glycan array binding signal (z-score),[33],-0.066
same,glycan array binding signal (z-score),[34],-0.17
same,glycan array binding signal (z-score),[35],-0.539
same,glycan array binding signal (z-score),[36],-0.525
same,glycan array binding signal (z-score),[37],-0.513
same,glycan array binding signal (z-score),[38],4.93

# 3 records picked at random from those above, as already listed:
binder,measurement,setting,value
B1,glycan array binding signal (z-score),[18],-0.498
same,glycan array binding signal (z-score),[20],0.376
same,glycan array binding signal (z-score),[9],0.1
